PubChem BioAssay AID1259405 – NCATS – 2018
Purpose: 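Silenced genes that increase secreted GFP made by CHO cells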 (primary screen). Cell system: Chinese hamster CHO-K1 ovary cells with stable secreted eGFP expression. Reagent: single siRNA against mouse genes, 0.8 pmol siRNA per well (2 µl of 400 nM stock). Duration: 3 days. Measurement: 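Percent of the per-plate non-targeting control median for intracellular GFP per well by laser scanning cytometry and for cell viability by ATP luminescence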. Scale: GFP, % of control: higher = more GFP per well, higher productivity; viability (ATP), % of control: higher = more viable cells (more ATP). Call rule: 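Called active when intracellular GFP, relative to negative control, is at or above 120%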.
The whole screen tested about 50,000 reagents; shown is a random part of them. About 4,000 of them (8%) count as active. 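Mouse siRNA library applied to hamster cells; one well for each siRNA.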 Reagents against one gene are numbered here.

{"target": "Akt1", "reagent no.": 1, "GFP, % of control": 83.1, "viability (ATP), % of control": 62.5, "activity call": "inactive"}
{"target": "Akt1", "reagent no.": 2, "GFP, % of control": 114, "viability (ATP), % of control": 52.1, "activity call": "inactive"}
{"target": "Akt1", "reagent no.": 3, "GFP, % of control": 102, "viability (ATP), % of control": 85.7, "activity call": "inactive"}
{"target": "Impdh2", "reagent no.": 1, "GFP, % of control": 59.4, "viability (ATP), % of control": 51.9, "activity call": "inactive"}
{"target": "Impdh2", "reagent no.": 2, "GFP, % of control": 80.4, "viability (ATP), % of control": 108, "activity call": "inactive"}
{"target": "Impdh2", "reagent no.": 3, "GFP, % of control": 60.8, "viability (ATP), % of control": 81.4, "activity call": "inactive"}
{"target": "Rab7", "reagent no.": 1, "GFP, % of control": 101, "viability (ATP), % of control": 136, "activity call": "inactive"}
{"target": "Rab7", "reagent no.": 2, "GFP, % of control": 156, "viability (ATP), % of control": 102, "activity call": "active"}
{"target": "Rab7", "reagent no.": 3, "GFP, % of control": 114, "viability (ATP), % of control": 108, "activity call": "inactive"}
{"target": "Rab7", "reagent no.": 4, "GFP, % of control": 118, "viability (ATP), % of control": 92.7, "activity call": "inactive"}
{"target": "Rab7", "reagent no.": 5, "GFP, % of control": 121, "viability (ATP), % of control": 85.8, "activity call": "active"}
{"target": "Rab7", "reagent no.": 6, "GFP, % of control": 114, "viability (ATP), % of control": 89.1, "activity call": "inactive"}
{"target": "Zfp688", "reagent no.": 1, "GFP, % of control": 59.5, "viability (ATP), % of control": 64.1, "activity call": "inactive"}
{"target": "Zfp688", "reagent no.": 2, "GFP, % of control": 58.6, "viability (ATP), % of control": 78.9, "activity call": "inactive"}
{"target": "Zfp688", "reagent no.": 3, "GFP, % of control": 70.2, "viability (ATP), % of control": 69.9, "activity call": "inactive"}
{"target": "Vmn1r177", "reagent no.": 1, "GFP, % of control": 85.9, "viability (ATP), % of control": 51.1, "activity call": "inactive"}
{"target": "Vmn1r177", "reagent no.": 2, "GFP, % of control": 94.4, "viability (ATP), % of control": 60.1, "activity call": "inactive"}
{"target": "Vmn1r177", "reagent no.": 3, "GFP, % of control": 50.5, "viability (ATP), % of control": 124, "activity call": "inactive"}
{"target": "Matn4", "reagent no.": 1, "GFP, % of control": 72.4, "viability (ATP), % of control": 95.4, "activity call": "inactive"}
{"target": "Matn4", "reagent no.": 2, "GFP, % of control": 104, "viability (ATP), % of control": 92.6, "activity call": "inactive"}
{"target": "Letmd1", "reagent no.": 1, "GFP, % of control": 70.8, "viability (ATP), % of control": 62, "activity call": "inactive"}
{"target": "Letmd1", "reagent no.": 2, "GFP, % of control": 77.7, "viability (ATP), % of control": 82.3, "activity call": "inactive"}
{"target": "Letmd1", "reagent no.": 3, "GFP, % of control": 78.6, "viability (ATP), % of control": 82, "activity call": "inactive"}
{"target": "Myom2", "reagent no.": 1, "GFP, % of control": 92.6, "viability (ATP), % of control": 95.3, "activity call": "inactive"}
{"target": "Myom2", "reagent no.": 2, "GFP, % of control": 56.6, "viability (ATP), % of control": 74.5, "activity call": "inactive"}
{"target": "Myom2", "reagent no.": 3, "GFP, % of control": 81, "viability (ATP), % of control": 93.4, "activity call": "inactive"}
{"target": "Mon2", "reagent no.": 1, "GFP, % of control": 74.9, "viability (ATP), % of control": 58.6, "activity call": "inactive"}
{"target": "Mon2", "reagent no.": 2, "GFP, % of control": 94.8, "viability (ATP), % of control": 97, "activity call": "inactive"}
{"target": "Mon2", "reagent no.": 3, "GFP, % of control": 41.9, "viability (ATP), % of control": 38.5, "activity call": "inactive"}
{"target": "Alox12b", "reagent no.": 1, "GFP, % of control": 115, "viability (ATP), % of control": 120, "activity call": "inactive"}
{"target": "Alox12b", "reagent no.": 2, "GFP, % of control": 64, "viability (ATP), % of control": 69.9, "activity call": "inactive"}
{"target": "Hspa2", "reagent no.": 1, "GFP, % of control": 83.6, "viability (ATP), % of control": 71.3, "activity call": "inactive"}
{"target": "Hspa2", "reagent no.": 2, "GFP, % of control": 82.5, "viability (ATP), % of control": 88.2, "activity call": "inactive"}
{"target": "Hspa2", "reagent no.": 3, "GFP, % of control": 58.7, "viability (ATP), % of control": 108, "activity call": "inactive"}
{"target": "Dnai4", "reagent no.": 1, "GFP, % of control": 92.9, "viability (ATP), % of control": 77.3, "activity call": "inactive"}
{"target": "Dnai4", "reagent no.": 2, "GFP, % of control": 65.8, "viability (ATP), % of control": 64, "activity call": "inactive"}
{"target": "Dnai4", "reagent no.": 3, "GFP, % of control": 129, "viability (ATP), % of control": 88.5, "activity call": "active"}
{"target": "Treml1", "reagent no.": 1, "GFP, % of control": 94, "viability (ATP), % of control": 56.1, "activity call": "inactive"}
{"target": "Treml1", "reagent no.": 2, "GFP, % of control": 91.8, "viability (ATP), % of control": 74.8, "activity call": "inactive"}
{"target": "Treml1", "reagent no.": 3, "GFP, % of control": 44.4, "viability (ATP), % of control": 46.7, "activity call": "inactive"}
